From patent US10941137B2, “Difluoromethyl-phenyl triazoles” (Boehringer Ingelheim International GmbH, priority 2018, dated 2021) come the findings set out here.

Chains of the proteins cited; added tags and fusions are not shown. Residues count along the entry.
UniProt P18507, whole entry: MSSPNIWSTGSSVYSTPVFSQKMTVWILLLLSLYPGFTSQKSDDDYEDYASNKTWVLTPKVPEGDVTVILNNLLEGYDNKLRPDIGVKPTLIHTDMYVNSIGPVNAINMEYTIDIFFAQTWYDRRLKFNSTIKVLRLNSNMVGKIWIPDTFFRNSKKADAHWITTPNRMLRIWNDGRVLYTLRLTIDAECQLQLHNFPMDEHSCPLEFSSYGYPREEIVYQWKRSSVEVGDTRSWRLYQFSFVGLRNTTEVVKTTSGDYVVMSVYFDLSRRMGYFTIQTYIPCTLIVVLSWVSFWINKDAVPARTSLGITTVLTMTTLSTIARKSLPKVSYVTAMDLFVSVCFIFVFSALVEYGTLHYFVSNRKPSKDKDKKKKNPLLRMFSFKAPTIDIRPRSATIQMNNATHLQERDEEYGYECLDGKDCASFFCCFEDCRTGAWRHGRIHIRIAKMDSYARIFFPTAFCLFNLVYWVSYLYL
UniProt P18507, 40-376 limits assumed: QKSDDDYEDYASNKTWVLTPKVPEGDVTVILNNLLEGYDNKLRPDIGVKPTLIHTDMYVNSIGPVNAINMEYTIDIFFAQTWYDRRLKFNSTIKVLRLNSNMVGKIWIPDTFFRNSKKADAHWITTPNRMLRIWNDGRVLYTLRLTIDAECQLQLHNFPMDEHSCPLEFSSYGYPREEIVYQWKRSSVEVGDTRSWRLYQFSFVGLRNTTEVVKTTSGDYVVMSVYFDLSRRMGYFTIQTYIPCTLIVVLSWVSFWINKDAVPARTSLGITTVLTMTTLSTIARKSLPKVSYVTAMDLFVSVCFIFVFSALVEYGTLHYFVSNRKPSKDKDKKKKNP
UniProt P31644, whole entry: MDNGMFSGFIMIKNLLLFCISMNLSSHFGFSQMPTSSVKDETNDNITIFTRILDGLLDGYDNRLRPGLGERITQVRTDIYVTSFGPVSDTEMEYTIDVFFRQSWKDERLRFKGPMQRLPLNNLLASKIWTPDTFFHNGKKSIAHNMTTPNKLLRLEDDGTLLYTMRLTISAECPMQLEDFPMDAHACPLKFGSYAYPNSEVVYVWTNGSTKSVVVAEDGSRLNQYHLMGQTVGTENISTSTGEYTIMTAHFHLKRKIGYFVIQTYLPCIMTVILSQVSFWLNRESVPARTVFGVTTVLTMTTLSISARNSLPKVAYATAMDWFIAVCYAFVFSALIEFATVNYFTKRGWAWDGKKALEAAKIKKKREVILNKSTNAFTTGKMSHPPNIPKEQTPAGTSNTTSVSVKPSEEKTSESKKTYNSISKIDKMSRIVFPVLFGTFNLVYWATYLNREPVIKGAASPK
UniProt P31644, 32-462 limits assumed: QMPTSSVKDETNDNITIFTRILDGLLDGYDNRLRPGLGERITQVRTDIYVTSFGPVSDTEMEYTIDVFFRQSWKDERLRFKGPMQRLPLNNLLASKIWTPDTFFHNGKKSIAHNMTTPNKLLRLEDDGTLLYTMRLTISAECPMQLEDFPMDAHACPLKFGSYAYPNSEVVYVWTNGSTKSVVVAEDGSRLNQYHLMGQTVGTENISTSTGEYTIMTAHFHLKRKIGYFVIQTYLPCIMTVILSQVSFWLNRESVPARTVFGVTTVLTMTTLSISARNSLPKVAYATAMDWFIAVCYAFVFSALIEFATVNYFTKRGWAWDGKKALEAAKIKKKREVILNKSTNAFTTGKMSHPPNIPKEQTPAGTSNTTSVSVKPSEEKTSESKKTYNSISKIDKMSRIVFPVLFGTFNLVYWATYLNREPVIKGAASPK

The target in data set [1] is human GABAA α5β3γ2s receptor (Homo sapiens, UniProt P18507+P31644). The data set can be described thus: Assay A: in vitro inhibition of 3H-flumazenil binding, HEK cells expressing human GABAA α5β3γ2s receptor. As to conditions: read-out: Assay A: GABAA α5β3γ2s Ki; 3H-flumazenil 1 nM, HEK-293 membranes, 40 min at 2° C.; Ki from IC50 by Cheng and Prusoff.
In a further data set the target is α5β2γ2 GABAA receptor (Homo sapiens, UniProt P18507+P31644). The data set can be described thus: Assay B: modulation of α5β2γ2 GABAA receptor, two-electrode voltage clamp in oocytes. Particulars: read-out: Assay B: GABAA α5β3γ2 EC50, TEVC, co-application with GABA 0.5 μM (EC5-20). (Two-electrode voltage clamp is typically applied to oocytes expressing channels or transporters.)

A short description of data set [2]: Metabolic stability in human liver microsomes (Human MST). The format is in vitro ADME. As to conditions: human liver microsomes 1 mg/mL, 1 μM compound, NADPH 1 mM, 37° C. On the procedure: Assessment of Metabolic Stability in Human Liver Microsomes (Human MST) The metabolic stability of the compounds according to the invention may be investigated as follows: The metabolic degradation of the test compound is assayed at 37° C. with pooled human liver microsomes. The final incubation volume of 100 μL per time point contains TRIS buffer pH 7.6 at room temperature (0.1 M), MgCl2 (5 mM), microsomal protein (1 mg/mL) and the test compound at a final concentration of 1 μM. Following a short pre-incubation period at 37° C., the reactions are initiated by addition of beta-nicotinamide adenine dinucleotide phosphate, reduced form (NADPH, 1 mM), and terminated by transferring an aliquot into solvent after different time points. After centrifugation (10000 g, 5 min), an aliquot of the supernatant is assayed by LCMS/MS for the amount of parent compound. The half-life (t½) is determined by the slope of the semi-logarithmic plot of the concentration-time profile.
On the technique in general: Liver microsomes are a subcellular fraction often used to study metabolism.

The structures appear in SMILES notation. The structures given here were assigned with low confidence; some may be wrong.

The term Ki denotes a dissociation constant, usually derived from enzyme kinetics or from competition with a known ligand. Broadly, the EC50 is the concentration at which the effect is half-maximal. As to `Cc1nnn(-c2ccc(C(F)F)cc2)c1COc1ccc(-n2ncnc2N)nn1`, the Ki in data set [1] was 0.07 nM. Further, on α5β2γ2 GABAA receptor, the EC50 was found to be 2.4 nM. Moreover, the “Human MST t1/2” value in data set [2] was above 2.17 h.
